Library screen at single concentrations

The filed quantity is “Percent Effect” (%).
The controls that fix the scale are not given in the record; negative values are as filed.
This is an unselected part of the compounds tested.
Two or more numbers in one place are separate tests of the same structure; such repeats can differ widely.

Mtb cholesterol medium: 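Whole-cell growth test on Mycobacterium tuberculosis, read after 4 days in a medium based on cholesterol and the lipid DPPC; the read-out is not stated. Tested at 50 µM. The record gives no direction; compounds that gave an IC50 in retests scored well above the rest, so higher reads as more growth inhibition. About 69,000 compounds were tested under these conditions; 0.54% (about 370) showed 50% or more at least once.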
Mtb glucose medium: 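Growth of Mycobacterium tuberculosis over 3 days (7H9 medium with glucose and tyloxapol); the read-out is not stated. Tested at 50 µM. The record gives no direction; compounds that gave an IC50 in retests scored well above the rest, so higher reads as more growth inhibition. Size under these conditions: about 69,000 compounds, about 760 of them at 50% or above in at least one test.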

compound | Mtb cholesterol medium | Mtb glucose medium
CCc1ccc(C(CNC(=O)c2c(C)noc2C)N(C)C)cc1 (stereo not given) | -7.148 | -24.74
CCN(c1ccc(C(=O)NCCCN2CCCC2)cc1)S(=O)(=O)CC | -12.86 | -8.377 & -11.21
COc1cc(C2SCC(=O)Nc3[nH]ncc32)cc(OC)c1OC (stereo not given) | -8.102 | 14.22
[H][C@@]12CCCCN(Cc3cccs3)[C@]1([H])CN(S(=O)(=O)c1ccccc1)C2 | 9.529 | 18.41
O=C(NCCc1cccs1)N1CCC[C@H]1CO | 2.489 | 20.28
CC(=O)N1CCC(c2nn(C)c3nccnc23)C1 (stereo not given) | -15.12 | -11.09
O=S(=O)(NCCCn1cncn1)c1ccc2c(c1)OCCCO2 | 3.017 | 0.3406
CC(C)c1ncc(Cl)c(C(=O)N2CCN(C3CC3)CC2)n1 | -19.94 | -10.82
Cc1nc(CNC(=O)NC(C)c2ccc3c(c2)OCCO3)cs1 (stereo not given) | -48.51 | -20.48
Cc1ccsc1CNC1CCCN(Cc2noc(C3CC3)n2)C1 (stereo not given) | 6.734 | -8.227 & -0.2979
CC(=O)NCCc1cn(-c2cc(F)ccc2C)cn1 | -2.239 | -21.7
O=C(c1cnco1)N1CCC(Cc2cnc3ccccc3c2)CC1 | 4.836 & -6.506 | 15.91
Cc1ccc(N2CCCN(C(=O)C(C)OCC3CC3)CC2)nn1 (stereo not given) | 9.266 | 9.522
CCCS(=O)(=O)N1Cc2ccnn2CC(c2nc(C)no2)C1.O=C(O)C(F)(F)F (stereo not given) | -20.85 | -17.53
O=C(O)C(F)(F)F.O=C(O)C(F)(F)F.O=C(O)C(F)(F)F.[H][C@]12C[C@H](C(=O)NC)N(C(C)C)[C@@]1([H])CN(Cc1cccnc1OC)C2 | -16.6 | -18.35 & -10.11
O=C1OC2(CCN(C(=O)C3NCCc4[nH]cnc43)CC2)c2ccccc21 (stereo not given) | 13.72 | 1.69
Cc1cccc(NC(=O)C2CSCN2C(=O)c2cnccn2)c1C (stereo not given) | -6.448 | 0.01785
Cn1nc(CN2CCCCC2)c2c1CN(C(=O)c1ccoc1)C2 | -26.24 | -14.42
CCCc1nnsc1C(=O)N1CCN(CC(C)O)CC1.Cl (stereo not given) | -5.921 | -19.18 & -5.823
Cc1noc(C)c1C(=O)NCc1ccc(N2CCOC(C)C2)nc1 (stereo not given) | -14.67 | -12.26
CC(CNC(=O)N1CCS(=O)(=O)CC1)Cc1cccs1 (stereo not given) | -4.227 | 3.329
CC(C)N(C)Cc1ccccc1CNc1ccc2nncn2n1 | -8.672 & 7.657 | -16.16
Cc1cc(N2CCc3c(ncn3C3CC3)C2)nc(N)n1 | 15.24 & -0.6275 | 5.636
Cc1oc(C(=O)O)cc1S(=O)(=O)Nc1ccc(Cl)c(F)c1 | -15.37 | -5.118
CCc1cc(NCCc2ccc(O)cc2)n2nccc2n1 | -6.748 | 16.19 & 21.51
[H][C@@]12CCCO[C@]1([H])[C@H](OCC1CC1)CN2Cc1scnc1C | 6.64 | 25.96
[H][C@@]12CCN(C[C@@H]1CN1CCCCC1)[C@@H](CNC(=O)Nc1ccccc1)C2 | -4.73 | -37.32 & 3.85
CCn1cc(CN2CCC(c3ncc(Cl)cc3S(C)(=O)=O)CC2)c(C)n1 | 13.91 & -10.74 | 11.2
Cc1csc2ncc(-c3ccnc(N4CCC[C@H](C(N)=O)C4)n3)c(=O)n12 | -2.001 | -16.42
Clc1cccc(C2CCN(c3ncnc4c3CCNC4)C2)c1 (stereo not given) | 20.02 | 43.67 & 2.528
O=C(O)C(F)(F)F.O=C(O)C(F)(F)F.O=C(O)C(F)(F)F.[H][C@@]12CCC(=O)N(Cc3cccc(C)n3)[C@]1([H])CCN2Cc1nccn1C | -8.766 | 26.13
CC(C(=O)NCc1ccnc(N(C)C)c1)n1cncn1 (stereo not given) | 29.78 | 17.56
CC(N1CCN(C(=O)NCc2cccc(C#N)c2)CC1)C(F)(F)F (stereo not given) | -1.29 & -9.404 | 28.39
O=C(O)C(F)(F)F.O=C(c1cnccn1)N1CCOC2(CCN(Cc3ccsc3)CC2)C1 | 14.47 | 33.53
Cc1ncsc1CN1CCC2(CC1)CC(=O)N(Cc1ccc(Cl)cc1)C2 | 14.65 | 2.458 & 14.43
CC(=O)N1CCN(CCNc2snc(Cl)c2C#N)CC1 | -14.47 | 7.696
CCS(=O)(=O)N1CCCC(n2nnn(-c3ccccc3)c2=O)C1 (stereo not given) | 14.43 & 7.586 | 2.533
Cn1nnc2c1CCN(Cc1ccncc1)C2COCC1CC1.O=C(O)C(F)(F)F.O=C(O)C(F)(F)F (stereo not given) | -9.305 | -7.217
O=C(CN1CCN(CCO)CC1)NC(C1CC1)C1CC1 | 9.514 | 10.97
CC1COc2ccccc2N1C(=O)CCc1cscn1 (stereo not given) | -10.81 | 32.33 & 16.98
Cc1cccc(C(=O)NC2CCN(c3cnn(C)c3)C2=O)n1 (stereo not given) | 1.504 | 6.293
CN(C)c1ccc(C(=O)N2CCC(c3cc4ncccc4[nH]3)CC2)cc1 | 15.5 & 27.46 | 6.768
COCC(NC(=O)NCc1ccc(C)c(F)c1)c1ccco1 (stereo not given) | -21.69 | -40.52
COc1ccccc1OCc1cc(C(=O)N2C[C@H](O)[C@@H](N(C)C)C2)n[nH]1 | -19.53 | -27.45 & -5.708
OC(COCc1ccco1)CN1CCC(Cn2cccn2)CC1 (stereo not given) | 7.048 | -0.2717
CCn1cnnc1CNC(=O)N1CCOC(c2ccc(F)cc2)C1 (stereo not given) | 5.842 | -15.22 & 3.422
CC(NC(=O)CSCC(=O)Nc1ccccc1)c1ccccc1 (stereo not given) | -8.666 | 14.96
O=C(O)C(F)(F)F.[H][C@@]12COC[C@]1(COCC1CC1)CN(Cc1cnn(C)c1)C2 | -12.08 | -25.17
CCCN(CCO)C(=O)c1cc(COc2ccc3c(c2)CCCC3)on1 | 7.716 | -13.31
CC(C(=O)Nc1ccccn1)n1ccc(C(F)(F)F)n1 (stereo not given) | -24.04 | -1.407
O=C(NCCc1cnccn1)C1(N2CCCCC2)Cc2ccccc2C1 | -0.497 | 6.197
CN1CCCC1c1ccnc2nccn12 (stereo not given) | 1.1 & -12.45 | -23.66
CN(C)c1ncnc2c1CCN(C(=O)CN1CCCCC1)C2 | 75.09 | 0.2928
CC(=O)N1CCCC1(C(=O)N1CCCC1)c1cnccn1 (stereo not given) | -24.74 & -12.65 | -12.91
N#CCCCn1nnnc1Cc1ccc(Br)cc1 | 32.64 | 66.16
Cc1cnn(-c2cccc(N3CCCCC3)n2)c1 | -5.993 | -21.08
COc1cccc(-c2cc(NCC(=O)O)nc3[nH]ccc23)n1 | 6.252 | -16.64
CN1CCN(S(C)(=O)=O)Cc2cccnc21 | -11.4 | 4.271
CC(C)n1nc2c(cc1=O)CN(CC1CCCCO1)CC2 (stereo not given) | -11.05 | -5.148
COC(=O)c1cnc(C(=O)N(c2ccc(OC)c(F)c2)C(C)C)cn1 | -1.232 | 14.18
CC1CCCN(C(=O)c2ccn(COc3ccccc3)n2)C1 (stereo not given) | 29.31 | 4.209
CCN(CCC(F)(F)F)C(=O)Nc1cccc(N2CCOCC2)c1 | 25.74 | 6.897
CCc1ccc(CN(C)Cc2nc(-c3cnccn3)no2)nc1 | -1.56 | 4.598
CNC(=O)[C@@H]1C[C@@H](NC(=O)CCCc2cccs2)CN1C1CCOCC1 | -15.14 & 4.226 | -15.88
O=C(O)C(F)(F)F.[H][C@@]12COC[C@]1(CNC(=O)c1ccsc1)CN(Cc1cc(C)on1)C2 | -7.356 | 6.862

Some entries from above, unchanged:

| compound | Mtb cholesterol medium | Mtb glucose medium |
|---|---|---|
| `CC(C)N(C)Cc1ccccc1CNc1ccc2nncn2n1` | -8.672 & 7.657 | -16.16 |
| `O=C1OC2(CCN(C(=O)C3NCCc4[nH]cnc43)CC2)c2ccccc21` (stereo not given) | 13.72 | 1.69 |
| `Cc1nc(CNC(=O)NC(C)c2ccc3c(c2)OCCO3)cs1` (stereo not given) | -48.51 | -20.48 |
| `CC(=O)N1CCN(CCNc2snc(Cl)c2C#N)CC1` | -14.47 | 7.696 |

From ChEMBL document CHEMBL3988442, “University of Dundee, Small-Polar-MMV Screening Library” (2021).